Measurements reported in PubChem BioAssay AID1259415 (National Center for Advancing Translational Sciences (NCATS), 2018).
In all, about 410,000 compounds went through this assay and about 18,000 (4.4%) were called active. This list was built around the results that the source calls inconclusive (neither active nor inactive); the mix of calls is not that of the screen. Cut-off read from the data, not from the text of the source: active = activity change below about -60%; inconclusive = no clear call, values can overlap the other calls; inactive = above about -39%.

experiment: qHTS Assay for inhibitors of the human cytomegalovirus (HCMV); details: HFF cells, HCMV-luciferase reporter, 72 h; at 57.5 µM; hits give low values
How it was run: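 Human foreskin fibroblasts infected with luciferase-reporter HCMV at MOI 1 PFU/cell, compounds at two doses. Luciferase measured 72 h post infection; normalized to buffer-only basal and Salinomycin (10uM) controls.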
% is set by controls: 0 for no effect and ±100 for the full control effect.

Compound	activity change, negative = inhibition
COc1cc(NS(=O)(=O)c2cc(Br)cc3c2N(C(C)=O)C(C)C3)cc(OC)c1 (configuration not stated)	inconclusive: -43.2%
O=C1CCCc2nc(N3CCCCC3)sc21	inconclusive: -40.2%
CCc1ccc2oc(C(=O)NCc3ccncc3)c(C)c2c1	inconclusive: -58.3%
O=C(CSc1nnnn1-c1ccc(F)cc1)c1ccc(O)c(O)c1	inactive: 26.9%
CSc1nsc(SC)c1NC(=O)OCc1ccccc1	inactive: 40.5%
O=C(NCc1nnnn1-c1ccc(Cl)cc1)C(=O)c1c[nH]c2ccccc12	inactive: 65.4%
COc1ccc(-c2csc3ncnc(Nc4ccc(OC)cc4OC)c23)cc1	inconclusive: -47.6%
CC12CC[C@H]3[C@@H](CCC4(O)C[C@H](O)CCC34/C=N/NC(=O)c3ccccc3F)C1(O)CCC2C1=CC(=O)OC1 (some centres not stated)	inconclusive: -53.8%
COC(=O)CCc1c(C)c(C(=O)c2ccc(F)cc2)c2ccccn12	inconclusive: -56.7%
COc1ccc(OCc2csc(N)n2)cc1	inactive: 39.5%
Cc1cc(C(=O)O)ccc1-c1ccc(/C=N/n2cnnc2)o1	inconclusive: -44.6%
Cc1ccc(C)c(N=Nc2ccc(O)c3ncccc23)c1	active: -83.7%
Cn1c(C(=O)NCc2ccccc2Cl)cc2sc(Cl)cc21	active: -62.3%
Cc1nc2ccccc2n1C(c1cccnc1)c1nc2ccccc2[nH]1 (configuration not stated)	active: -78.7%
CC(C)OC(=O)CSc1nnc(CNc2ccc(Cl)cc2)n1C	inconclusive: -40.1%
CCn1cc(CN2CCCC(CNC(=O)COc3ccccc3OC)C2)c(C)n1 (configuration not stated)	inconclusive: -44.4%
CC1(C)C(=O)OC(c2cccn2-c2ccc([N+](=O)[O-])cc2)C(C)(C)C1=O (configuration not stated)	inconclusive: -40.2%
Cc1ccc2c(=O)c(CN3CCCCCC3)c(C)[nH]c2c1C	inconclusive: -48%
CCC(=O)N1N=C(c2c(O)n(C)c(=O)n(C)c2=O)CC1c1ccccc1 (configuration not stated)	inconclusive: -48.3%

Compound	activity change, negative = inhibition
O=C(Nc1ccc(F)cc1)c1nc(SCc2ccccc2F)ncc1Cl	inconclusive: -42.7%
O=C(c1cc(-c2ccco2)on1)N1CCc2ccccc2C1	inactive: 90.6%
c1ccc(COc2ccccc2CNC23CC4CC(CC(C4)C2)C3)cc1	active: -97.2%
CSC(=NC#N)N1CCN(c2cccc(Cl)c2)CC1	active: -67.1%
COC(=O)c1ccc(Cn2cnc3cnccc32)cc1	inconclusive: -40.2%
N#CC1=C2SCCN2C(=O)C(C#N)C12CCCCC2 (configuration not stated)	inactive: -4.31%
CCCN(CCC)Cc1c(C(=O)N/N=C/C(C)=C\c2ccco2)nnn1-c1nonc1N	inconclusive: -49.2%
Cc1sc2ncnc(NCC(O)c3ccc([N+](=O)[O-])cc3)c2c1C (configuration not stated)	active: -78.5%
O=C(c1ccccc1)c1nn(-c2ccccc2)c(=O)cc1C(F)(F)F	active: -67%
CC(=O)NC(CC(=O)N1CCN(C(C)=O)CC1)c1ccccc1 (configuration not stated)	inactive: -6.27%
CCn1nc(C(=O)Nc2ccc(S(=O)(=O)Nc3nccs3)cc2)c2ccccc2c1=O	inactive: 47.1%
COc1ccc(C(=O)N2CC3(C)CC2CC(C)(C)C3)cc1 (configuration not stated)	inactive: 8.45%
CNc1nnc(-c2ccc(C)cc2)c2ccccc12	inconclusive: -44.6%
Cc1cccc(-n2c(/C=C/c3ccccc3O)nc3ccccc3c2=O)c1	active: -98.2%
Cc1ccccc1CN1C(=O)C(O)(c2c[nH]c3ccccc23)c2cc(Cl)ccc21 (configuration not stated)	active: -92.5%
COc1cccc(CNC(=O)C2CCCN(c3nn4cc(-c5ccc(C)cc5)nc4s3)C2)c1 (configuration not stated)	inconclusive: 0%
CCOC(=O)C1(Cc2cccc(OC)c2)CCN(C(C)CC(C)(C)O)CC1 (configuration not stated)	inactive: 14%
CCc1nc(NCc2cccs2)c2nnn(Cc3ccccc3)c2n1	inactive: 19.3%
CC1(C(=O)Nc2ccc3[nH]ncc3c2)CCN1C(=O)Cc1ccc(-c2ccccc2)cc1 (configuration not stated)	inconclusive: -47.7%

Compound	activity change, negative = inhibition
COc1ccccc1CNC(=O)CSc1nc(N)c(C#N)c(-c2cccs2)c1C#N	inconclusive: -40.5%
Cn1cnc(S(=O)(=O)N2CCC(C(=O)Nc3ccc(OC(F)(F)F)cc3)CC2)c1	active: -60.2%
CC(C)c1ccc(NC(=O)CSc2nnc(-c3ccccn3)n2C)cc1	inconclusive: -45.9%
Cc1ccc(S(=O)(=O)NCCCNc2ccc([N+](=O)[O-])cc2)cc1	inconclusive: -42.7%
CSc1ccc(S(=O)(=O)NCc2ccc(Cl)cc2Cl)cc1	inactive: 5.1%
COc1ccc(S(=O)(=O)N2CCN(CCC(=O)Nc3ccc(F)cc3)CC2)cc1	inconclusive: -45.4%
CCCCN(CC)CCCNC(=O)c1ccc2c(c1)N(Cc1ccc(C)cc1)C(=O)c1ccccc1S2	active: -98%
O=C(CSc1nnnn1C1CCCCC1)NCc1cccs1	inactive: -22.6%
O=C(CN1CCN(c2ccccn2)CC1)N1CCc2ccccc21	inconclusive: -46.8%
O=S(=O)(NCCc1csc(-c2cccnc2)n1)c1ccc(Cl)s1	inconclusive: -42.1%
O=C(CN1CCN(S(=O)(=O)c2ccccc2F)CC1)Nc1ccccc1C(=O)c1ccccc1	inconclusive: -40.3%
Cc1ccc(CC(=O)OC(C)C(=O)NC2CCCCC2C)cc1C (configuration not stated)	inconclusive: -42.5%
O=C(CCCN1C(=O)/C(=C\c2ccco2)SC1=S)Nc1ccc2ccccc2c1	active: -81.3%
CC(C)c1ccc(-c2nc(N3CCOCC3)[nH]c(=O)c2C#N)cc1	inconclusive: -40.9%
CCOC(=O)C1=C(C)N(C[C@@H]2CC[C@@H](Cc3ccc4cc(OC)ccc4c3)O2)C(=O)NC1c1ccccc1 (some centres not stated)	inconclusive: -45.2%
CCC(NC(=O)CCCc1ccccc1)c1ccccc1 (configuration not stated)	inconclusive: -48.2%
COCCn1c(=N)c(C(=O)NCCc2ccccc2)cc2c(=O)n3cccc(C)c3nc21	active: -68.7%
CSc1ccccc1NC(=S)NC1CCCC1	inactive: -13.5%
COc1ccc(C(=O)NC2CCN(CC(=O)NCc3cccc(OC)c3)CC2)cc1	inconclusive: -53.3%

Structures above that contain a nitro group on carbon:
Compound	activity change, negative = inhibition
CC1(C)C(=O)OC(c2cccn2-c2ccc([N+](=O)[O-])cc2)C(C)(C)C1=O (configuration not stated)	inconclusive: -40.2%
Cc1sc2ncnc(NCC(O)c3ccc([N+](=O)[O-])cc3)c2c1C (configuration not stated)	active: -78.5%
Cc1ccc(S(=O)(=O)NCCCNc2ccc([N+](=O)[O-])cc2)cc1	inconclusive: -42.7%
